Measured values as given in patent publication US20190330339A1 (published 2019).
These are yes or no findings as the source states them, for the method shown. Some binding calls cover weakened binding; strength is not graded here. Where a sequence is shown, tags or fusion partners need not be part of it.

Sequences of proteins named here, by UniProt entry; tags and fusion partners are left off. A change or cut given only in a name is not applied to a line headed by its entry.
UniProt Q15116: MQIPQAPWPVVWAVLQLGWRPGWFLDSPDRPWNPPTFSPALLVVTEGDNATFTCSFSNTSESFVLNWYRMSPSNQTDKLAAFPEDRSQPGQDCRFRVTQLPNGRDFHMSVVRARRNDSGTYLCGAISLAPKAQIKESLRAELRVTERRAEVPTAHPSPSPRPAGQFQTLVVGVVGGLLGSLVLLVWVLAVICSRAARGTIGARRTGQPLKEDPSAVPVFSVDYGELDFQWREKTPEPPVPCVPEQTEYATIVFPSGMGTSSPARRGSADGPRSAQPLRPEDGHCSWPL

Target: T1, human PD-1 expressed on cells (human, UniProt Q15116 25-288)
T1 construct: the transgene of the cell lines is not tied to it by name; also called hPD-1; CHO.hPD-1
Assay: flow cytometry ligand competition on CHO cells over-expressing human PD-1
Protocol: Ligand competition assays were performed on human PD-1 over-expressing CHO cells. A Nanobody dilution series was prepared in assay buffer: PBS/10% FBS/0.05% sodium azide. […] 2×10⁴ cells/well were seeded in V-bottom 96-well plates and resuspended in 200 μL/well of the Nanobody/ligand dilution. After 90 minutes incubation at 4° C., the cells were washed with 100 μL/well assay buffer and resuspended in 100 μL/well PE-labeled Goat anti-human IgG (Southern Biotech, 2043-09). Samples were incubated for 30 minutes at 4° C., washed, and resuspended in 100 μL/well of 5 nM TOPRO3 (LifeTechnologies, T3606) solution before analysis on FACS CANTO II (BD).

binding: binds
B1: F023701190 (1PD102C12 (E1D, L11V, A14P, W52aV, A74S, K83R, I89L, W100aF)-HIS6) (VHH, not shown: small tags and cut ends)
VHH: DVQLVESGGGVVQPGGSLRLSCAASGSIASIHAMGWFRQAPGKEREFVAVITVSGGITYYADSVKGRFTISRDNSKNTVYLQMNSLRPEDTALYYCAGDKHQSSFYDYWGQGTLVTVSS
